Source: patent publication US20190119388A1 (GREEN CROSS, published 2019)
These are yes or no findings as the source states them, for the method shown. Some results given as binding are weak or reduced against the parent protein; the word gives no strength.

Biological target: EGFR used for panning and coated on the 96-well ELISA plate (UniProt P00533)
Test: phage display panning (4 rounds) and ELISA on a 96-well plate coated with an EGFR

B1: GC1118 (antibody, human IgG1, kappa, V domains shown)
VH: EVQLVESGGGVVQPGGSLRLSCAASGFTFSDYDMSWIRQAPGKGLEWVSGILGGSERSYYRDSVKGRFTISRDNSRKTLYLQMNSLRAEDTAVYYCARHGSPGYTLYAWDYWGQGTTVTVSS
VL: DIVMTQTPLSLPVTPGEPASISCRSNQDLTHSNGNTYLEWYLQKPGQSPRLLIYKVSNRFSGVPDRFSGSGAGTDFTLRISRVEAEDVGVYYCMQGTHWPWTFGQGTKVDIKR
With B1 as the binder, how does the binding read?
The binding was “binds”.
